{"source": "paper PMC8989681", "about": "“Functional and structural deficiencies of Gemin5 variants associated with neurological disorders” (Life Science Alliance, 2022)", "binders": {"B1": {"name": "endogenous Gemin5 protein (natural protein, human (endogenous in HEK293), UniProt Q8TEQ6 1-1508, looked up)", "chain": "MGQEPRTLPPSPNWYCARCSDAVPGGLFGFAARTSVFLVRVGPGAGESPGTPPFRVIGELVGHTERVSGFTFSHHPGQYNLCATSSDDGTVKIWDVETKTVVTEHALHQHTISTLHWSPRVKDLIVSGDEKGVVFCYWFNRNDSQHLFIEPRTIFCLTCSPHHEDLVAIGYKDGIVVIIDISKKGEVIHRLRGHDDEIHSIAWCPLPGEDCLSINQEETSEEAEITNGNAVAQAPVTKGCYLATGSKDQTIRIWSCSRGRGVMILKLPFLKRRGGGIDPTVKERLWLTLHWPSNQPTQLVSSCFGGELLQWDLTQSWRRKYTLFSASSEGQNHSRIVFNLCPLQTEDDKQLLLSTSMDRDVKCWDIATLECSWTLPSLGGFAYSLAFSSVDIGSLAIGVGDGMIRVWNTLSIKNNYDVKNFWQGVKSKVTALCWHPTKEGCLAFGTDDGKVGLYDTYSNKPPQISSTYHKKTVYTLAWGPPVPPMSLGGEGDRPSLALYSCGGEGIVLQHNPWKLSGEAFDINKLIRDTNSIKYKLPVHTEISWKADGKIMALGNEDGSIEIFQIPNLKLICTIQQHHKLVNTISWHHEHGSQPELSYLMASGSNNAVIYVHNLKTVIESSPESPVTITEPYRTLSGHTAKITSVAWSPHHDGRLVSASYDGTAQVWDALREEPLCNFRGHRGRLLCVAWSPLDPDCIYSGADDFCVHKWLTSMQDHSRPPQGKKSIELEKKRLSQPKAKPKKKKKPTLRTPVKLESIDGNEEESMKENSGPVENGVSDQEGEEQAREPELPCGLAPAVSREPVICTPVSSGFEKSKVTINNKVILLKKEPPKEKPETLIKKRKARSLLPLSTSLDHRSKEELHQDCLVLATAKHSRELNEDVSADVEERFHLGLFTDRATLYRMIDIEGKGHLENGHPELFHQLMLWKGDLKGVLQTAAERGELTDNLVAMAPAAGYHVWLWAVEAFAKQLCFQDQYVKAASHLLSIHKVYEAVELLKSNHFYREAIAIAKARLRPEDPVLKDLYLSWGTVLERDGHYAVAAKCYLGATCAYDAAKVLAKKGDAASLRTAAELAAIVGEDELSASLALRCAQELLLANNWVGAQEALQLHESLQGQRLVFCLLELLSRHLEEKQLSEGKSSSSYHTWNTGTEGPFVERVTAVWKSIFSLDTPEQYQEAFQKLQNIKYPSATNNTPAKQLLLHICHDLTLAVLSQQMASWDEAVQALLRAVVRSYDSGSFTIMQEVYSAFLPDGCDHLRDKLGDHQSPATPAFKSLEAFFLYGRLYEFWWSLSRPCPNSSVWVRAGHRTLSVEPSQQLDTASTEETDPETSQPEPNRPSELDLRLTEEGERMLSTFKELFSEKHASLQNSQRTVAEVQETLAEMIRQHQKSQLCKSTANGPDKNEPEVEAEQPLCSSQSQCKEEKNEPLSLPELTKRLTEANQRMAKFPESIKAWPFPDVLECCLVLLLIRSHFPGCLAQEMQQQAQELLQKYGNTKTYRRHCQTFCM", "notes": "Gemin5, human, full-length endogenous protein of HEK293 cells; also called full-length Gemin5; source: endogenous, HEK293 soluble cell extract"}}, "biological_target": "G5_(845-1508)-WT-TAP (human) (UniProt Q8TEQ6)", "test": "affinity purification with mass spectrometry; G5_(845-1508)-TAP baits expressed in HEK293; TAP purification, in-gel trypsin digestion, LC-MS/MS, PEAKS; two biological replicates; at least two distinct peptides", "note": "No constants are given. Whether binding was seen depends on the method and setting. Binding seen in cells or lysates may run through a third protein. Here binding means that the protein was enriched with, or labelled near, the bait; the list need not be complete."}
{"binder": "B1", "values": [{"measurement": "binding", "value": "binds"}]}
